PubChem BioAssay AID686938 | Drosophila RNAi Screening Center – 2013

Screen: 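Looking for CRAC channel components and the factors controlling them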 (primary screen)
Cell system: Drosophila S2R+ cells
Reagent: long dsRNA against Drosophila genes, about 0.25 µg dsRNA per well, roughly 10,000 cells
Timing: 5 days of knock-down before the calcium assay
Treatment: thapsigargin (SERCA pump blocker) to empty calcium stores; entry signal taken 4 min after adding it
Measured: 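Duplicate raw fluo-4 intensities per well from a plate reader, at rest and four minutes after thapsigargin emptied calcium stores; entry-to-rest ratio filled for only some wells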
Reading the numbers: calcium entry signal: higher = stronger calcium signal after store depletion; resting calcium signal: higher = higher resting calcium signal
Units: calcium entry signal in fluorescence units; resting calcium signal in fluorescence units
Rule for the call: 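Hit if the duplicate-averaged plate z-score for entry over resting signal is under −3; wells with weak total dye signal (Fmax z < −2) or more than 5 off-targets removed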
Meaning of the calls: active = strongly reduced calcium entry; inactive = no strong reduction
The deposit covers about 23,000 reagents; shown is a random part of those with a known target gene and a result. Of all reagents, 75 (0.33%) are marked active. 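Raw plate signals without normalisation; calls rest on plate z-scores that were not deposited; ratio present for only 364 wells.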 A number with no mark means an inactive call. The record does not give: the dose of the treatment.

CG7601 [DRSC14131] → calcium entry signal, replicate 1: 2.86e7; calcium entry signal, replicate 2: 2.78e7; resting calcium signal, replicate 1: 1.36e7; resting calcium signal, replicate 2: 1.30e7
CG8908 [DRSC07297] → calcium entry signal, replicate 1: 5.45e7; calcium entry signal, replicate 2: 4.35e7; resting calcium signal, replicate 1: 2.49e7; resting calcium signal, replicate 2: 2.26e7
CG34355 [DRSC13639] → calcium entry signal, replicate 1: 3.80e7; calcium entry signal, replicate 2: 6.06e7; resting calcium signal, replicate 1: 1.68e7; resting calcium signal, replicate 2: 3.11e7
CG34355 [DRSC14520] → calcium entry signal, replicate 1: 4.39e7; calcium entry signal, replicate 2: 5.06e7; resting calcium signal, replicate 1: 2.21e7; resting calcium signal, replicate 2: 2.30e7
CG34355 [DRSC14668] → calcium entry signal, replicate 1: 4.77e7; calcium entry signal, replicate 2: 6.07e7; resting calcium signal, replicate 1: 2.23e7; resting calcium signal, replicate 2: 2.61e7
CG34355 [DRSC21687] → calcium entry signal, replicate 1: 3.83e7; calcium entry signal, replicate 2: 3.66e7; resting calcium signal, replicate 1: 2.10e7; resting calcium signal, replicate 2: 1.66e7
mthl8 (methuselah-like 8) [DRSC08211] → calcium entry signal, replicate 1: 3.65e7; calcium entry signal, replicate 2: 3.56e7; resting calcium signal, replicate 1: 1.64e7; resting calcium signal, replicate 2: 1.74e7
mthl8 (methuselah-like 8) [DRSC08311] → calcium entry signal, replicate 1: 3.59e7; calcium entry signal, replicate 2: 4.47e7; resting calcium signal, replicate 1: 1.75e7; resting calcium signal, replicate 2: 1.91e7
CG7139 [DRSC11611] → calcium entry signal, replicate 1: 3.85e7; calcium entry signal, replicate 2: 5.15e7; resting calcium signal, replicate 1: 1.83e7; resting calcium signal, replicate 2: 3.34e7
CG42713 [DRSC01050] → calcium entry signal, replicate 1: 3.69e7; calcium entry signal, replicate 2: 5.01e7; resting calcium signal, replicate 1: 1.91e7; resting calcium signal, replicate 2: 2.13e7
SdhCL (Succinate dehydrogenase, subunit C-like) [DRSC16078] → calcium entry signal, replicate 1: 3.55e7; calcium entry signal, replicate 2: 3.68e7; resting calcium signal, replicate 1: 1.75e7; resting calcium signal, replicate 2: 1.85e7

Records above whose target name starts with M or m:
mthl8 (methuselah-like 8) [DRSC08211] → calcium entry signal, replicate 1: 3.65e7; calcium entry signal, replicate 2: 3.56e7; resting calcium signal, replicate 1: 1.64e7; resting calcium signal, replicate 2: 1.74e7
mthl8 (methuselah-like 8) [DRSC08311] → calcium entry signal, replicate 1: 3.59e7; calcium entry signal, replicate 2: 4.47e7; resting calcium signal, replicate 1: 1.75e7; resting calcium signal, replicate 2: 1.91e7

Next reagents follow:
mfas (midline fasciclin) [DRSC16997] → calcium entry signal, replicate 1: 3.13e7; calcium entry signal, replicate 2: 4.01e7; resting calcium signal, replicate 1: 1.31e7; resting calcium signal, replicate 2: 1.86e7
s-cup (stanley-cup) [DRSC06277] → calcium entry signal, replicate 1: 3.47e7; calcium entry signal, replicate 2: 4.46e7; resting calcium signal, replicate 1: 1.75e7; resting calcium signal, replicate 2: 1.98e7
s-cup (stanley-cup) [DRSC06278] → calcium entry signal, replicate 1: 3.21e7; calcium entry signal, replicate 2: 3.28e7; resting calcium signal, replicate 1: 1.66e7; resting calcium signal, replicate 2: 1.62e7
CG14764 [DRSC05072] → calcium entry signal, replicate 1: 3.68e7; calcium entry signal, replicate 2: 6.22e7; resting calcium signal, replicate 1: 1.69e7; resting calcium signal, replicate 2: 2.75e7
CG14764 [DRSC06498] → calcium entry signal, replicate 1: 3.79e7; calcium entry signal, replicate 2: 2.93e7; resting calcium signal, replicate 1: 1.66e7; resting calcium signal, replicate 2: 1.54e7
CG14764 [DRSC06844] → calcium entry signal, replicate 1: 3.31e7; calcium entry signal, replicate 2: 3.90e7; resting calcium signal, replicate 1: 1.54e7; resting calcium signal, replicate 2: 1.64e7
AGO3 (Argonaute 3) [DRSC21386] → calcium entry signal, replicate 1: 3.71e7; calcium entry signal, replicate 2: 3.41e7; resting calcium signal, replicate 1: 2.08e7; resting calcium signal, replicate 2: 1.68e7
Gk2 (Glycerol kinase 2) [DRSC08610] → calcium entry signal, replicate 1: 4.00e7; calcium entry signal, replicate 2: 3.91e7; resting calcium signal, replicate 1: 1.81e7; resting calcium signal, replicate 2: 1.87e7
mam (mastermind) [DRSC05468] → calcium entry signal, replicate 1: 4.21e7; calcium entry signal, replicate 2: 5.50e7; resting calcium signal, replicate 1: 2.15e7; resting calcium signal, replicate 2: 2.90e7
mam (mastermind) [DRSC07648] → calcium entry signal, replicate 1: 2.98e7; calcium entry signal, replicate 2: 2.96e7; resting calcium signal, replicate 1: 1.95e7; resting calcium signal, replicate 2: 1.89e7
mam (mastermind) [DRSC22971] → calcium entry signal, replicate 1: 7.36e7; calcium entry signal, replicate 2: 3.04e7; resting calcium signal, replicate 1: 3.17e7; resting calcium signal, replicate 2: 1.22e7
